Binding data for two molecules are collected here from paper PMC10914614.

These are yes or no findings as the source states them, for the method shown. In cells and extracts the contact can be indirect. Here binding means that the protein was enriched with, or labelled near, the bait; the list need not be complete.

The test addresses FLAG-tagged ΦKZ014 (ΦKZ014-FLAG) (Pseudomonas phage ΦKZ). Description: affinity purification with mass spectrometry; anti-FLAG pull-down of ectopically expressed ΦKZ014-FLAG from infected cells at 1 mM or 10 mM magnesium; eluted with FLAG peptide; MS of the eluates.

B1: 50S ribosomal protein bL35 (protein, UniProt Q9I0A1 1-64)
chain: MPKMKTKSGAAKRFKKTAGGLKHKHAFKSHILTKMTTKRKRQLRGTSMLNKSDVARVERSLRLR
With B1, the binding result is “binds”.

B2: 50S ribosomal protein uL30 (protein, UniProt Q9HWF3 1-58)
chain: MATVKVTLVKSLNGRLANHKACVKGLGLRRINHTVEVQDTPENRGMINKAYYLLRVEG
Take B2: the binding result is on record as “binds”.
